PubChem BioAssay AID1671195 – Yale University, 2021

Screen: 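Genes whose knockdown alters LDL uptake in liver cancer cells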 (primary screen)
Cell system: human Huh7 hepatoma cells
Knock-down reagent: siRNA pool against human genes, 18 nM
Duration: about 2 to 2.5 days of knockdown, then 8 h LDL uptake
Conditions: DiI-labelled LDL at 30 µg/ml for 8 h, in lipoprotein-deficient serum medium
Read-out: 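Fluorescent LDL signal imaged in cells, scaled to the plate median, robust z-score for each replicate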
Direction: robust z-score: higher = more LDL uptake after knockdown
Call rule: 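a gene counts as active if at least two replicate z-scores exceed ±2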
Here is one part, drawn at random, of about 22,000 deposited reagents. About 1,510 of all reagents (6.9%) count as active. 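Active includes knockdowns raising or lowering LDL uptake; positive z-scores mean more uptake, negative mean less.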 Entries without a mark were called inactive. The numbers tell different reagents against one gene apart.

gene | pool no. | robust z-score, replicate 1 | robust z-score, replicate 2 | robust z-score, replicate 3
LOC441816 (retired record) | 1 | -0.0839 | 0.0251 | -0.0217
LOC400933 (retired record) | 1 | -0.948 | -1.14 | -0.703
CYCS | 1 | 0.107 | -0.57 | -0.0364
PLA2G10 | 1 | 1.73 | 1.94 | 1.28
H3C10 | 1 | -0.505 | -0.155 | -0.561
CD59 | 1 | 0.0558 | 0.923 | 2.44
RAC1 | 1 | 0.825 | 0.853 | -0.273
DUSP13B | 1 | 0.166 | -0.392 | -0.108
SLC25A36 | 1 | -1.18 | -1.61 | -1.08
STARD3NL | 1 | -1.62 | -0.759 | -1.6
LRP6 | 1 | -0.304 | 0.045 | -0.127
ALOXE3 | 1 | -0.442 | 0.00345 | -0.876
UNC80 | 1 | -1.2 | -1.46 | -1.49
FADS2 | 1 | 2.24 | 1.68 | 1.04
EFCAB9 | 1 | -0.148 | -0.609 | -0.543
TCAF2 | 1 | -0.404 | -0.63 | -0.476
ELF4 | 1 | -0.143 | 0.523 | 0.0994
MYH15 | 1 | -0.932 | -0.771 | -1.57
KCNA3 | 1 | -1.67 | -1.86 | -1.92
COX20 | 1 | 0.26 | 0.829 | 1.21
ARMC2 | 1 | -0.212 | 0.588 | 0.88
TMEM161A | 1 | 0.298 | -1.4 | -1.14
TMPRSS7 | 1 | -0.293 | 0.276 | -0.652
CADM4 | 1 | -0.275 | 0.151 | 0.154
LINC00908 | 1 | -1.01 | -1.16 | -1.1
SFRP1 | 1 | 0.136 | 0.215 | -0.755
VWA2 | 1 | 0.986 | -0.0113 | 0.341
STAR | 1 | 0.299 | 0.648 | -0.158
TBC1D30 | 1 | 0.891 | 1.9 | 0.327
TEX13B | 1 | 1.97 | 1.79 | 0.776
VPS52 | 1 | 2.65 | 0.429 | 0.888
PRIM2 | 1 | -0.558 | -0.582 | -0.362
LOC285110 (retired record) | 1 | -0.659 | -0.552 | -0.427
WNT11 | 1 | 5.38 | -0.822 | -1.21
PGGT1B | 1 | -0.616 | -0.464 | -0.234
PRKAB2 | 1 | 0.185 | 1.29 | 1.95
LOC401951 (retired record) | 1 | 0.93 | 1.79 | 1.22
POU3F2 | 1 | -1.08 | -0.953 | -0.731
CRYBA4 | 1 | 0.997 | 0.841 | -1.09
STRADB | 1 | 0.349 | 0.066 | 0.913
ZC3H7A | 1 | -0.175 | -1.24 | 0.036
KIAA0319 | 1 | 0.761 | 0.98 | 0.0224
BSX | 1 | -1.53 | -1.17 | -1.42
TUBGCP6 | 1 | -0.244 | -1.06 | -0.584
CMYA5 | 1 | 0.927 | 0.165 | 1.99
RNF213 | 1 | 0.916 | 0.741 | 0.533
RNF213 | 2 | -0.897 | -1.04 | -0.96
ODAD1 | 1 | -0.985 | -0.554 | -0.699
SPMAP1 | 1 | -1.63 | -1.59 | -1.77
HNRNPLL | 1 | -0.616 | -0.973 | -0.996
PLA2G5 | 1 | 1.17 | 1.94 | 1.22
LOC440277 (retired record) | 1 | -0.697 | -1.01 | -0.658
HSD17B3 | 1 | 0.153 | -0.425 | -0.249
SS18 | 1 | 2.14 | 1.5 | 1.17
FAM13C | 1 | 0.431 | 0.332 | 0.603
LOC441872 (retired record) | 1 | -0.234 | -0.282 | -0.376
PUS1 | 1 | 0.383 | 0.365 | -0.0331
MEGF9 | 1 | 1.56 | 1.26 | 1.07
C9orf153 | 1 | -0.305 | -0.305 | -0.456
FAT1 | 1 | -1.35 | -1.43 | -1.05
P4HA2 | 1 | -0.00728 | 1.67 | 0.348
IGSF8 | 1 | 0.921 | 0.276 | 0.278
ESX1 | 1 | 0.293 | 0.592 | 0.265
NPDC1 | 1 | -1.72 | -1.68 | -1.59
RNF5 | 1 | -0.441 | -0.572 | -0.189
SLC1A7 | 1 | -0.511 | 0.293 | 0.213
CENATAC | 1 | -0.61 | -0.891 | -0.939
IFRD1 | 1 | -0.409 | -0.842 | -0.624

Reformatted: 5 of the entries above
| gene | pool no. | robust z-score, replicate 1 | robust z-score, replicate 2 | robust z-score, replicate 3 |
| --- | --- | --- | --- | --- |
| VPS52 | 1 | 2.65 | 0.429 | 0.888 |
| PRIM2 | 1 | -0.558 | -0.582 | -0.362 |
| LOC285110 (retired record) | 1 | -0.659 | -0.552 | -0.427 |
| WNT11 | 1 | 5.38 | -0.822 | -1.21 |
| PGGT1B | 1 | -0.616 | -0.464 | -0.234 |
